Results as given in paper PMC5578694.
These are yes or no findings as the source states them, for the method shown. In cells and extracts the contact can be indirect. Some entries that bind do so weakly or less than the wild type. Tags and fused reporters may be left off the sequences shown.

Amino acid sequences for entries named in this document (tags omitted).
UniProt P38111: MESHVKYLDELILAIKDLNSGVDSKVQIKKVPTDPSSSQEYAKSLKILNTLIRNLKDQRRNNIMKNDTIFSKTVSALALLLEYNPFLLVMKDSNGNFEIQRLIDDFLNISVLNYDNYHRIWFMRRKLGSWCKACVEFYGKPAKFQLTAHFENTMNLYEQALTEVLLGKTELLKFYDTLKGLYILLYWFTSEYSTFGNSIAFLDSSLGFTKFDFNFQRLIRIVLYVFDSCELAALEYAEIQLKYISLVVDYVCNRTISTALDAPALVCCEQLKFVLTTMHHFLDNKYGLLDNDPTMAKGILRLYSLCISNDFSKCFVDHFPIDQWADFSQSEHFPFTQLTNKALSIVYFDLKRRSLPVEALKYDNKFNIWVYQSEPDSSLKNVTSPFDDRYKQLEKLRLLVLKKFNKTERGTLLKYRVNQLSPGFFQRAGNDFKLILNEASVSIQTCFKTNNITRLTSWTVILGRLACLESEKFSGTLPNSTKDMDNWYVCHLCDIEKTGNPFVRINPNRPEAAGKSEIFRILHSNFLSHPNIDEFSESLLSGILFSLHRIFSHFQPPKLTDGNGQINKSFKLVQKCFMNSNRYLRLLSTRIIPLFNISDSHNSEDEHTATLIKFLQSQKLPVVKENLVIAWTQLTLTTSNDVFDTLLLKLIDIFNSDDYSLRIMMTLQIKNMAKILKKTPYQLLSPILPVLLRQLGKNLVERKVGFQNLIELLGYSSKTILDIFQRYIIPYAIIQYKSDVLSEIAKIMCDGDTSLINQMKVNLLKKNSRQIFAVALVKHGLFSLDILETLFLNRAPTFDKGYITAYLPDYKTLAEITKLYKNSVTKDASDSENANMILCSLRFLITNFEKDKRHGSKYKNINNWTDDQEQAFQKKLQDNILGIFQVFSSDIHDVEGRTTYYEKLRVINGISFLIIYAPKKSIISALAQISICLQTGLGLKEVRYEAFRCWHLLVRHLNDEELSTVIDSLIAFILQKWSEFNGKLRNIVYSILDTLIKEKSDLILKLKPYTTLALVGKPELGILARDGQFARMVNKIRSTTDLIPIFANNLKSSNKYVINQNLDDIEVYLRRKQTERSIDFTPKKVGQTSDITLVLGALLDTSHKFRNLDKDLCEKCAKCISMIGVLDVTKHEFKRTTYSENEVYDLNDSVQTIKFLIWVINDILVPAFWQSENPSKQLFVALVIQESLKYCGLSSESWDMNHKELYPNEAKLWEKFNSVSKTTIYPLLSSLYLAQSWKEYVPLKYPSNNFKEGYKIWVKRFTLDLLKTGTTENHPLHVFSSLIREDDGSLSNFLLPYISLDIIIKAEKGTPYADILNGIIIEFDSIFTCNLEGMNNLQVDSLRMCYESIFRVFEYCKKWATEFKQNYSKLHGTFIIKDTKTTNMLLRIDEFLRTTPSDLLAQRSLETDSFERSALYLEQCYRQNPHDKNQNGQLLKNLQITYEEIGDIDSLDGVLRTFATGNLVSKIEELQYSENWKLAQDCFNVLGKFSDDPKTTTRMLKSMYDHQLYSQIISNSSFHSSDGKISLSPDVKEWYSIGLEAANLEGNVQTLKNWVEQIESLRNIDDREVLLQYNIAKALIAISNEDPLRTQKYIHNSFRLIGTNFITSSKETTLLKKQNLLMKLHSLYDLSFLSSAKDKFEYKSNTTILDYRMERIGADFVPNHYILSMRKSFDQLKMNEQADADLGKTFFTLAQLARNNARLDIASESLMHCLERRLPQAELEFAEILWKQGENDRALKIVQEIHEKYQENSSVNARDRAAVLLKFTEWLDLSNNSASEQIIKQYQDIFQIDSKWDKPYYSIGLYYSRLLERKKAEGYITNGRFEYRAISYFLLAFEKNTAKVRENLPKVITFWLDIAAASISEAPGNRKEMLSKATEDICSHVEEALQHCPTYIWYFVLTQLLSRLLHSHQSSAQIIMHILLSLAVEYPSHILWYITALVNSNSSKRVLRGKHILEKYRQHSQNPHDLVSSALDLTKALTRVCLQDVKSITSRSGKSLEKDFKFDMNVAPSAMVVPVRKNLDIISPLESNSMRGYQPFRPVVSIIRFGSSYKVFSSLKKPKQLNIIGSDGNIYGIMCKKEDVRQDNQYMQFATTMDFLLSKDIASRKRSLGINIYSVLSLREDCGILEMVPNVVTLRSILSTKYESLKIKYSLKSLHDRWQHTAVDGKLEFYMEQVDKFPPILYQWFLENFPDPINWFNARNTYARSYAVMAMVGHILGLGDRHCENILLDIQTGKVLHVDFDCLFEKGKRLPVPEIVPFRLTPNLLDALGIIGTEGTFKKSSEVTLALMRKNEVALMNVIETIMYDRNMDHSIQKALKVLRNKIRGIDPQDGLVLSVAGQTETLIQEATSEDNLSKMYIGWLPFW
UniProt P38110: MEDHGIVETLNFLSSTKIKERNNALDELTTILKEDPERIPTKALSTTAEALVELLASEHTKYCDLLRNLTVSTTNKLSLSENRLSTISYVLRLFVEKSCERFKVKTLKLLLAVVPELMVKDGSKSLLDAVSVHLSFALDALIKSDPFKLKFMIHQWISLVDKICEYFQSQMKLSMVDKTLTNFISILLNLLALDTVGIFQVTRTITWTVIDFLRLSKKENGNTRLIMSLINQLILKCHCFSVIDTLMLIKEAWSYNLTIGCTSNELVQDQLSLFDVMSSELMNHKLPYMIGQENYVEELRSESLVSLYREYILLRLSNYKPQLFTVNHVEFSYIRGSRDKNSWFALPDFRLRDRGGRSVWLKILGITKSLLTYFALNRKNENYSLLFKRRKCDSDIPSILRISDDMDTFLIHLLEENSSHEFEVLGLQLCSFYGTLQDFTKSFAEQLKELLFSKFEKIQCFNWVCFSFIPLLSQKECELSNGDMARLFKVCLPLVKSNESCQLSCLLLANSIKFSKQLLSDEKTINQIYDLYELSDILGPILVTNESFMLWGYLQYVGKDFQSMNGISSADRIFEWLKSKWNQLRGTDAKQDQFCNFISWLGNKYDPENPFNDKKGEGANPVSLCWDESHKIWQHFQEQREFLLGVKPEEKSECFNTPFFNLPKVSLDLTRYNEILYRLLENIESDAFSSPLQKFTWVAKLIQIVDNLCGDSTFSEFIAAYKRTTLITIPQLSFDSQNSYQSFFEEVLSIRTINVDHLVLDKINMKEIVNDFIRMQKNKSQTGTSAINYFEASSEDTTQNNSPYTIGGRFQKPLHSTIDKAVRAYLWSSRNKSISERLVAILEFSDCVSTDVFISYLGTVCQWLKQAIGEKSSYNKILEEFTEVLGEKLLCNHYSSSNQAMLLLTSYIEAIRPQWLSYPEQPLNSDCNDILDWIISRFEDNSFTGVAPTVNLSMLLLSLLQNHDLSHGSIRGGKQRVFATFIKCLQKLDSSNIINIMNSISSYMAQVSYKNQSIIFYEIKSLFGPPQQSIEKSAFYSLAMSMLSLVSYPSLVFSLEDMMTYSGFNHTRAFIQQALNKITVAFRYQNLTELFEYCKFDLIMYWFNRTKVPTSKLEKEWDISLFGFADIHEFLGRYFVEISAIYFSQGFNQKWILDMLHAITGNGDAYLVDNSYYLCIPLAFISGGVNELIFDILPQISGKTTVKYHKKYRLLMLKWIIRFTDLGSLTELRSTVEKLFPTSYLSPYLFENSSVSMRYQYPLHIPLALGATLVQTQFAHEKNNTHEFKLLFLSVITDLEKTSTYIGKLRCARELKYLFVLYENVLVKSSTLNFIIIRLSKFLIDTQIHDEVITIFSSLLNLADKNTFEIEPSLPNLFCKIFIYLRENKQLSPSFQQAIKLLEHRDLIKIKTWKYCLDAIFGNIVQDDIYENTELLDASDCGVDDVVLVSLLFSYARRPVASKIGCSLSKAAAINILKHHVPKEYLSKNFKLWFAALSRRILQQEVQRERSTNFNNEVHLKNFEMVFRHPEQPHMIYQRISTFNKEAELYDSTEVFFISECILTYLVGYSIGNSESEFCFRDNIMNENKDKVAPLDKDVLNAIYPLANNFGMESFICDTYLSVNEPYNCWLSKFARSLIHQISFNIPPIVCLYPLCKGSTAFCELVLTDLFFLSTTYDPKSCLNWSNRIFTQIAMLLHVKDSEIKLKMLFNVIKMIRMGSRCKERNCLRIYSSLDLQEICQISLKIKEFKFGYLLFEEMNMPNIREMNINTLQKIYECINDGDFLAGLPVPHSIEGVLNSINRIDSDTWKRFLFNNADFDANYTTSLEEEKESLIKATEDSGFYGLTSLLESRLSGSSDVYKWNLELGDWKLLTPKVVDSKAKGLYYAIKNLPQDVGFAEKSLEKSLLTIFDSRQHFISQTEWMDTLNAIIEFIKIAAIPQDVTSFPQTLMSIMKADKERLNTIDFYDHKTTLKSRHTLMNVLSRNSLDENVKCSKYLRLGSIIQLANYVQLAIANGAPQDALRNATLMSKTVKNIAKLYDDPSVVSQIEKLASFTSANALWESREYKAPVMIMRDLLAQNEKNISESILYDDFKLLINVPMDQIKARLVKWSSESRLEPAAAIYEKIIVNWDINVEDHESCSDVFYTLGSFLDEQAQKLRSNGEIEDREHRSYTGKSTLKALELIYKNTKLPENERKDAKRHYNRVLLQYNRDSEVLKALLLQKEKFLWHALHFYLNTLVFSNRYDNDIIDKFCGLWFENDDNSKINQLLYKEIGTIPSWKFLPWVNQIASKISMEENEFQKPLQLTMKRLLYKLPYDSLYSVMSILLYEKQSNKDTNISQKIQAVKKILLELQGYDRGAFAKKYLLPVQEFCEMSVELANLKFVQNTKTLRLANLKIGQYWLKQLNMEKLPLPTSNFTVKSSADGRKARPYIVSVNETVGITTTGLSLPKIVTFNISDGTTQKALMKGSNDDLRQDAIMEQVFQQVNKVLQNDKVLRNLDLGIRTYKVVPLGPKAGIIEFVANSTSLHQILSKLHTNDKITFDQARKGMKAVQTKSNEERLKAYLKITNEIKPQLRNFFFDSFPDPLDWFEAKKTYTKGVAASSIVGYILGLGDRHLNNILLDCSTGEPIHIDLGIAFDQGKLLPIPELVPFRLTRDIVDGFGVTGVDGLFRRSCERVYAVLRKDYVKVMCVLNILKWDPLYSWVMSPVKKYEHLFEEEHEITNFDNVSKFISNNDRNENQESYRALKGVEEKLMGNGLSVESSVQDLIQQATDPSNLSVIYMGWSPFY
UniProt Q03940: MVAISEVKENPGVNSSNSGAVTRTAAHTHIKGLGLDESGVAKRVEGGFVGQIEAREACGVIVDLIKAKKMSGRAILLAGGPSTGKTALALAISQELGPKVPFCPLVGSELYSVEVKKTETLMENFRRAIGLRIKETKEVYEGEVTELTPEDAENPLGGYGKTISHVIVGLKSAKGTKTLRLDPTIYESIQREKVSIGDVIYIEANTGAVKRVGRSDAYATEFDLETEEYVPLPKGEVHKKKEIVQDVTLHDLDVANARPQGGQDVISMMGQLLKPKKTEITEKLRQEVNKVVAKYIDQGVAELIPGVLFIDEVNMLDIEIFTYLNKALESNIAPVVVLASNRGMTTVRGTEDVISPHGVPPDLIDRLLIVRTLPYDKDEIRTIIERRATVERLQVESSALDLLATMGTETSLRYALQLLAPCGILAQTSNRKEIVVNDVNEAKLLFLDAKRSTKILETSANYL

T1: Asa1-HA (S. cerevisiae) (UniProt Q06822)
T1 sequence: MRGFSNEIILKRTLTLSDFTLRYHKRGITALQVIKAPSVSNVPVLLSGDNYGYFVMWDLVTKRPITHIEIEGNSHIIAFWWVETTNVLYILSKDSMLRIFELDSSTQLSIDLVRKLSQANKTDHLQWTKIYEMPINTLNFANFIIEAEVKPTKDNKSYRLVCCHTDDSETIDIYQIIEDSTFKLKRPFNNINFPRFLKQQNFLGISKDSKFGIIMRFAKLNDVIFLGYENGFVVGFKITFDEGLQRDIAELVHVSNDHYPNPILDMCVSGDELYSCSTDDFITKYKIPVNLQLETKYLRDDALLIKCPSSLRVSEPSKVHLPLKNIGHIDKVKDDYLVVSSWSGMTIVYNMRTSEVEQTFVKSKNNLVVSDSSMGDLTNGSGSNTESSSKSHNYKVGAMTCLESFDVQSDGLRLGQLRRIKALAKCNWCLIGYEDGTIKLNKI

T2: Tel2-HA (S. cerevisiae) (UniProt P53038)
T2 sequence: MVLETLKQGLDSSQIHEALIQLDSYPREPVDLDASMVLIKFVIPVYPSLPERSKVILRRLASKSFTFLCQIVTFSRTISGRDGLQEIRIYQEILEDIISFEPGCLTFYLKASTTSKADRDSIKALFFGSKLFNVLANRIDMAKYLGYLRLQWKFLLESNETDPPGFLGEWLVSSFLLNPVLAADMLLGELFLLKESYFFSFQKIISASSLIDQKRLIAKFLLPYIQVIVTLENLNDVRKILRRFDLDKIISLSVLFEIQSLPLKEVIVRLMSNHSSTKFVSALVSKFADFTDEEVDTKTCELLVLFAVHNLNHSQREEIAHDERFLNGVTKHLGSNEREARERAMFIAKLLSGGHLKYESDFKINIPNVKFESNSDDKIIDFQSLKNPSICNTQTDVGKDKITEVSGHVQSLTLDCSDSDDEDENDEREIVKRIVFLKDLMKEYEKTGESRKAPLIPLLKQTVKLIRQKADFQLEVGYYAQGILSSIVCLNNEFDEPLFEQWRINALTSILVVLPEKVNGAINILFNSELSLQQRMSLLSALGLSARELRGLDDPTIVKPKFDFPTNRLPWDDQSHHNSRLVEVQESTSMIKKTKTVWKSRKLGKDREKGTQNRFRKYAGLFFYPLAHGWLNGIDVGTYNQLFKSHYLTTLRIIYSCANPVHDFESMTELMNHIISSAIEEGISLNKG


Assays:
Assay in all cases: co-IP; yeast cell extracts immunoprecipitated with anti-HA antibodies; extracts and immunoprecipitates blotted with anti-HA, anti-myc or anti-FLAG; wild-type and pih1Δ cells (Fig 3B); asa1-aid cells with or without IAA and Dox for 6 hr (Fig 5A) or 2 hr (Fig 5E); tel2-aid cells with or without IAA and Dox (Fig 5C); rvb2-aid cells without depletion (Fig 5B); cells at 30°C, for Fig 5D also transferred to 42°C for 1 hr
Asa1-HA (S. cerevisiae) = molecular target: T1, Asa1-HA (S. cerevisiae)
Mec1-HA (S. cerevisiae) = Mec1-HA (S. cerevisiae) (UniProt P38111)
Tel1-HA (S. cerevisiae) = Tel1-HA (S. cerevisiae) (UniProt P38110)
Tel2-HA (S. cerevisiae) = molecular target: T2, Tel2-HA (S. cerevisiae)

| binding (Asa1-HA (S. cerevisiae)) | binding (Mec1-HA (S. cerevisiae)) | binding (Tel1-HA (S. cerevisiae)) | binding (Tel2-HA (S. cerevisiae)) | Molecule |
| --- | --- | --- | --- | --- |
| binds | – | – | – | Rvb1-myc (from UniProt Q03940 1-463) |
| – | binds | binds | – | Asa1-myc (protein, UniProt Q06822 1-443) MRGFSNEIILKRTLTLSDFTLRYHKRGITALQVIKAPSVSNVPVLLSGDNYGYFVMWDLVTKRPITHIEIEGNSHIIAFWWVETTNVLYILSKDSMLRIFELDSSTQLSIDLVRKLSQANKTDHLQWTKIYEMPINTLNFANFIIEAEVKPTKDNKSYRLVCCHTDDSETIDIYQIIEDSTFKLKRPFNNINFPRFLKQQNFLGISKDSKFGIIMRFAKLNDVIFLGYENGFVVGFKITFDEGLQRDIAELVHVSNDHYPNPILDMCVSGDELYSCSTDDFITKYKIPVNLQLETKYLRDDALLIKCPSSLRVSEPSKVHLPLKNIGHIDKVKDDYLVVSSWSGMTIVYNMRTSEVEQTFVKSKNNLVVSDSSMGDLTNGSGSNTESSSKSHNYKVGAMTCLESFDVQSDGLRLGQLRRIKALAKCNWCLIGYEDGTIKLNKI |
| – | – | – | binds | Pih1-myc (protein, UniProt P38768 1-344) MADFLLRPIKQRHRNEDKYVSVDAADGSVSKIEPIADFVIKTKLLSANGPEKLQDGRKVFINVCHSPLVPKPEVDFNARIVFPLIIQNEWEIPIITSCYRMDHDKKGQECYVWDCCINSDCSRWICDDIQLREILVEWCLESCEIRDSVVLCRDRIAFPKMKKKGAELPALEVLNDELHQDYKAKMHKIIEEEAGDPMSILRGRNDDGDDNNDPDDGTLPPLFPIENKISGAKIEEIDKNEIAHRNLKQAPAPAPAPHEQQEDVPEYEVKMKRFKGAAYKLRILIENKAPNSKPDRFSPSYNFAENILYINGKLSIPLPRDIVVNAADIKIFHIRKERTLYIYI |
| – | binds | binds | – | Tel2-FLAG (protein, UniProt P53038 1-688) MVLETLKQGLDSSQIHEALIQLDSYPREPVDLDASMVLIKFVIPVYPSLPERSKVILRRLASKSFTFLCQIVTFSRTISGRDGLQEIRIYQEILEDIISFEPGCLTFYLKASTTSKADRDSIKALFFGSKLFNVLANRIDMAKYLGYLRLQWKFLLESNETDPPGFLGEWLVSSFLLNPVLAADMLLGELFLLKESYFFSFQKIISASSLIDQKRLIAKFLLPYIQVIVTLENLNDVRKILRRFDLDKIISLSVLFEIQSLPLKEVIVRLMSNHSSTKFVSALVSKFADFTDEEVDTKTCELLVLFAVHNLNHSQREEIAHDERFLNGVTKHLGSNEREARERAMFIAKLLSGGHLKYESDFKINIPNVKFESNSDDKIIDFQSLKNPSICNTQTDVGKDKITEVSGHVQSLTLDCSDSDDEDENDEREIVKRIVFLKDLMKEYEKTGESRKAPLIPLLKQTVKLIRQKADFQLEVGYYAQGILSSIVCLNNEFDEPLFEQWRINALTSILVVLPEKVNGAINILFNSELSLQQRMSLLSALGLSARELRGLDDPTIVKPKFDFPTNRLPWDDQSHHNSRLVEVQESTSMIKKTKTVWKSRKLGKDREKGTQNRFRKYAGLFFYPLAHGWLNGIDVGTYNQLFKSHYLTTLRIIYSCANPVHDFESMTELMNHIISSAIEEGISLNKG |
